Structures are written as SMILES. The campaign covered roughly 1,300 compounds. About 270 (21%) were called active.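 The calls were made as follows: active = dose-dependent rise or fall in viability, either side of zero, with half-maximal concentration at or below a set limit; inconclusive = flat curve at 30 to 70% viability loss, or poor fit; inactive = flat within 30% either way, or potency beyond limit.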 This is one part of the list. Entries with a potency or affinity are not part of this list.

A short description of the assay: A375 melanoma cell viability reduction, dose response, counter-screen for MITF modulator project, cherry-pick samples, set 2 (AID 540335).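 Also: A375 human melanoma cells which do not depend on MITF; 0% = median of neutral control wells and 100% = double that signal.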 The settings on record: CellTiter-Glo ATP luminescence, 24 h; at 35 µM (top of the series). Background: The purpose of a counterscreen is to sort out artefacts and off-target activity.
`Cc1cnc(NC(=O)c2nn(C)cc2[N+](=O)[O-])s1`: the activity change, negative = decreased viability was inactive: 0.417%.
In the case of `NC(=O)c1c(NC(=O)c2cccnc2)sc2c1CCCCC2`, the activity change, negative = decreased viability is inactive: 8.24%.
For `OCC1CCCC(n2cnc3c(=S)nc[nH]c32)O1` (configuration not stated) the value was inactive: 9.92%.
The figure for `Cc1ccccc1NCc1nc2ccccc2n1C` is inactive: -17.8%.
On to `Cn1nnnc1Sc1ncnc2scc(-c3cccc(F)c3)c12`, for which the activity change, negative = decreased viability is inactive: 12.1%.
With `COCc1cc(C)nc2sc(C(=O)Nc3cccc(OC)c3)c(N)c12`, the activity change, negative = decreased viability was inactive: 9.9%.
`Cc1ccc2oc(Nc3nc(C)c(C)c(C)n3)nc2c1`: the activity change, negative = decreased viability is inactive: 3.65%.
For `Cc1ccc(-c2nc(-c3ccncc3)no2)cc1C` the value was inactive: 8.87%; for `O=C(CCC1CCCN(C(=O)c2cc3ccccc3o2)C1)NCc1ccc(F)c(F)c1` (configuration not stated), inactive: 16.4%; for `CN(c1ccc(O)cc1)c1nc(O)c(C2=c3ccccc3=NC2=O)s1`, inactive: 8.99%.
For the molecule `O=C(N/N=C/c1cccc(Oc2ccc([N+](=O)[O-])cc2[N+](=O)[O-])c1)c1cncc(Br)c1`, the activity change, negative = decreased viability was inactive: -6.16%.
As for `NCCN1C(=O)S/C(=C\c2ccc3c(c2)OCO3)C1=O`, the activity change, negative = decreased viability is inactive: 8.91%.
Take `Cc1ccc(-c2noc(CN3CCCCC3)n2)cc1`: the activity change, negative = decreased viability is inactive: -4.18%.
Consider `COc1cc(/C=N/NS(=O)(=O)c2ccc(C)cc2)ccc1OCc1cccc(C(=O)O)c1`, for which the activity change, negative = decreased viability is inactive: -6.1%.
`Nc1nnc(/C=C/c2ccccc2Cl)s1`: the activity change, negative = decreased viability was inactive: 5.9%.
Consider `CCOc1ccc(C(=O)N2CCc3ccccc32)cc1`, for which the activity change, negative = decreased viability is inactive: 7.33%.
For `COc1ccc2nc(N3CCN(C(=O)c4ccc([N+](=O)[O-])o4)CC3)sc2c1` the value was inactive: 5.07%; for `O=C(Nc1ccccc1N1CCOCC1)c1ccc([N+](=O)[O-])o1`, inactive: -5.46%; for `CC(C)c1nnc(NC(=O)CCC2CCCCC2)s1`, inactive: 6.1%.
On to `CCN(CC)C(=O)CCCOc1ccc(Cl)cc1Cl`, for which the activity change, negative = decreased viability is inactive: 2.77%.
With `COc1ccc(C(=O)Nc2ccc(C)cn2)c(OC)c1`, the activity change, negative = decreased viability was inactive: -36.8%.
Consider `Cn1nnnc1Sc1ncnc2scc(-c3cccs3)c12`, for which the activity change, negative = decreased viability is inactive: 6.26%.
Regarding `Cc1oc(-c2ccc(Cl)cc2)nc1CN1CCC(C(=O)NCCCN2CCCC(C)C2)CC1` (configuration not stated), the activity change, negative = decreased viability was inactive: -19.6%.
The figure for `Cc1c(/C=C/C(=O)c2ccc(Cl)s2)cnn1C` is inactive: 0.007%; for `C/C(=N/N=C(/C)c1cccs1)c1cccs1` it is inactive: 0.599%.
For the molecule `C[C@H]1CCC[C@]2(C)C[C@H]3OC(=O)C(CN4CCCCCC4)[C@H]3C=C12` (some centres not stated), the activity change, negative = decreased viability was inactive: -9.08%.
With `COc1cc(/C=N/NS(=O)(=O)c2ccc3ccccc3c2)ccc1OCc1ccc(C(=O)O)cc1`, the activity change, negative = decreased viability is inactive: 1.79%.
As to `Cc1c(C#N)c(O)n(CCO)c(=O)c1N=Nc1ccc2c(c1)COC2=O`, the activity change, negative = decreased viability is inactive: -7.95%.
Turning to `Cc1cc(Cl)ccc1NC(=O)c1ccc2c(c1)OCO2`, the activity change, negative = decreased viability was inactive: 7.61%.
`CC1CCC(C(C)C)C(OC(=O)C[n+]2cc(-c3ccc(Cl)cc3)n3c2CCCCC3)C1` (configuration not stated): the activity change, negative = decreased viability was inactive: -67.3%.
`O=[N+]([O-])c1cccc(/C=N/Nc2ncc(Br)cn2)c1`: the activity change, negative = decreased viability is inactive: 10.8%.
For `COc1ccc(COC(=O)c2cc([N+](=O)[O-])ccc2N2CCOCC2)cc1F` the value was inactive: -1.95%; for `CN(C)CCCNc1nc2sc3c(c2c(=O)n1CCc1ccccc1)CCCCC3`, inactive: -16.3%; for `O=C(Nc1nc2ccccc2s1)Nc1ccc(F)cc1F`, inactive: -7.29%.
Regarding `O=C(COC(=O)c1ccccc1C(=O)c1ccc(Cl)c([N+](=O)[O-])c1)NC1CC1`, the activity change, negative = decreased viability was inactive: 16.1%.
`N/C(=N\OC(=O)c1ccccc1Cl)c1cccc([N+](=O)[O-])c1`: the activity change, negative = decreased viability was inactive: 0.706%.
Regarding `O=C(Nc1ccccc1N1CCN(C(=O)c2ccccc2)CC1)c1ccc([N+](=O)[O-])o1`, the activity change, negative = decreased viability was inactive: 4.91%.
Turning to `COc1ccc(CNC(=O)CN2C(=O)C3C4C=CC(C4)C3C2=O)cc1` (configuration not stated), the activity change, negative = decreased viability was inactive: 8.04%.
For `COc1ccc(C(=O)NCCSc2ccccc2C)cc1`, the activity change, negative = decreased viability was inactive: -8.17%.
Regarding `CCOc1ccc(N/C=C/C(=O)c2ccc(OC)c(OC)c2)cc1`, the activity change, negative = decreased viability was inactive: -11.4%.
For the molecule `CC1CCN(c2nc3ccc(C(=O)O)cc3s2)CC1`, the activity change, negative = decreased viability is inactive: -18%.
Regarding `C=CCN1C(=O)S/C(=C\c2ccc(N3CCOCC3)cc2C)C1=O`, the activity change, negative = decreased viability was inactive: 2.72%.
For the molecule `COc1ccc(NC(=O)NC(=O)c2ccccc2)cc1`, the activity change, negative = decreased viability is inactive: -1.06%.
For `O=C(Nc1nnc(Cc2ccccc2)s1)c1ccccc1` the value was inactive: 4.38%.
For `O=C(NC1CCCC(C(F)(F)F)C1)c1ccc([N+](=O)[O-])o1` (configuration not stated) the value was inactive: 18.6%; for `Cn1nc([N+](=O)[O-])nc1S(C)(=O)=O`, inactive: -14.2%.
Consider `O=C(CSC(=S)N1CCCCC1)c1c(F)cccc1F`, for which the activity change, negative = decreased viability is inactive: 3.08%.
As to `CCOc1ccc(NC(=O)c2ccccn2)cc1`, the activity change, negative = decreased viability is inactive: -23.9%.
For `C/C(=N/NC(=O)C(O)(c1ccccc1)c1ccccc1)c1ccc([N+](=O)[O-])o1`, the activity change, negative = decreased viability was inactive: -9.11%.
As for `O=C(N/N=C/c1ccc([N+](=O)[O-])o1)c1cc2ccccc2o1`, the activity change, negative = decreased viability is inactive: -33.2%.
On to `O=[N+]([O-])c1ccc(N/N=C/C=C/c2ccco2)cc1`, for which the activity change, negative = decreased viability is inactive: 10.1%.
For `CCC(=O)N1CCN(c2ccc(NC(=O)c3ccc([N+](=O)[O-])o3)cc2)CC1` the value was inactive: 8.91%.
On to `Cc1cc(Cl)ccc1OCCCC(=O)N1CCOCC1`, for which the activity change, negative = decreased viability was inactive: 10.2%.
For `Cc1ccc(NC(=O)c2cc(N3C(=O)C=CC3=O)ccc2N2CCOCC2)cc1Cl` the value was inactive: -7.39%.
With `O=C(N/N=C/c1ccc(O)c2ncccc12)c1cccc(Br)c1`, the activity change, negative = decreased viability was inactive: -36.7%.
For `O=C(Cn1ncc(Cl)c(Cl)c1=O)Nc1ccc2c(c1)OCO2` the value was inactive: 26.9%; for `CCCOc1ccc(-c2c(=O)n(O)c3ccccc3[n+]2[O-])cc1`, inactive: 6.07%; for `O=C(N/N=C/c1ccc([N+](=O)[O-])o1)c1ccccc1-n1cccc1`, inactive: -22.6%.
Consider `CCCC1=Nc2cc(C(=O)NCCN3CCCC3)ccc2Sc2ccccc21`, for which the activity change, negative = decreased viability was inactive: -6.2%.
Turning to `Cc1nc2nc(C)c(NS(=O)(=O)c3ccc4c(c3)CCCC4)c(=O)n2[nH]1`, the activity change, negative = decreased viability was inactive: 12.3%.
On to `O=C(c1nnsc1S(=O)(=O)c1ccc(Cl)cc1)N1CCOCC1`, for which the activity change, negative = decreased viability is inactive: -5.83%.
For `C/C(=N\NC(=O)C(C)Oc1ccc([N+](=O)[O-])cc1)c1ccccn1` (configuration not stated) the value was inactive: -25.9%; for `CC(C)(C)c1ccc(OCCn2ccccc2=O)cc1`, inactive: 2.03%.
As for `O=C(CCCc1ccccc1)Nc1cccc(C(=O)O)c1`, the activity change, negative = decreased viability was inactive: 3.96%.
With `CC1CCN(C(=O)c2cc3ccccc3o2)CC1`, the activity change, negative = decreased viability is inactive: 11.5%.
For `O=C(c1ccccc1)c1cc(Cl)ccc1N1C(=O)C=CC1=O` the value was inactive: -30.6%.
`CCOc1ccc2cc(C#N)c(SCC(=O)OC)nc2c1`: the activity change, negative = decreased viability is inactive: -3.24%.
For the molecule `COC(=O)[C@@H]1C[C@]2(OC(=O)c3ccccc3)C=CC(=O)C[C@@H]2N1C(=O)OCc1ccccc1`, the activity change, negative = decreased viability is inactive: 5.93%.
Turning to `CCCCNC(=O)Nc1ccc(C2SCCS2)cc1`, the activity change, negative = decreased viability is inactive: -14.6%.
As to `COc1ccc(S(=O)NC2CCCCC2)c(OC)c1C` (configuration not stated), the activity change, negative = decreased viability was inactive: -1.99%.
In the case of `O=C(Nc1ccc(N2CCCC2)c(Cl)c1)c1ccc([N+](=O)[O-])o1`, the activity change, negative = decreased viability is inactive: -19.5%.
For `Cc1ccc(NC(=O)c2cnc3ccccc3n2)cc1C`, the activity change, negative = decreased viability was inactive: 3.06%.
For the molecule `COc1cc(/C=C/C(=O)N2CCC=CC2=O)cc(OC)c1OC`, the activity change, negative = decreased viability was inactive: 44.3%.
On to `CN(C)c1nc(C=C(C#N)C#N)c(Cl)n1-c1ccc(F)cc1`, for which the activity change, negative = decreased viability was inactive: -10.1%.
For the molecule `O=C(c1ccc(S(=O)(=O)Cc2ccccc2Cl)c([N+](=O)[O-])c1)N1CCN(c2ccccn2)CC1`, the activity change, negative = decreased viability was inactive: -4.16%.
As to `O=C(CS(=O)c1ccc(C(F)(F)F)cc1[N+](=O)[O-])Oc1ccccc1` (configuration not stated), the activity change, negative = decreased viability is inactive: 0.077%.
Regarding `Cc1ccc(C(=O)N/C(=C\c2ccc(-c3ccccc3[N+](=O)[O-])o2)C(=O)NCCN(C)C)cc1`, the activity change, negative = decreased viability is inactive: -8.4%.
The figure for `Cc1ccc(S(=O)(=O)CC(CN2CCCCC2)N2CCCCC2)cc1` (configuration not stated) is inactive: -9.59%; for `Cc1ccc(NC(=O)c2cc3ccccc3oc2=O)cc1S(=O)(=O)N(C)C` it is inactive: 5.66%.
Take `N#C/C(=C(/O)c1ccc([N+](=O)[O-])o1)c1nc2ccccc2[nH]1`: the activity change, negative = decreased viability is inactive: -27.3%.
With `CCOC(=O)C1(Cc2cccc(OC)c2)CCCN(C(=O)CSC)C1` (configuration not stated), the activity change, negative = decreased viability is inactive: -0.174%.
In the case of `CCN(Cc1ccc(OC)c(F)c1)C(=O)CCl`, the activity change, negative = decreased viability is inactive: -25.2%.
As to `CC(C)c1ccc(CNc2ncccn2)cc1`, the activity change, negative = decreased viability was inactive: 11.7%.
For the molecule `CCN(CC)CCn1nc2c3c(cccc3c1=O)-c1ccccc1-2`, the activity change, negative = decreased viability was inactive: -17.6%.
Take `COc1ccccc1N1CCN(/N=C\c2ccccc2)CC1`: the activity change, negative = decreased viability is inactive: -2.87%.
With `CC(=C/c1ccco1)/C=N/N1CCN(c2ccccc2)CC1`, the activity change, negative = decreased viability was inactive: -30.1%.
In the case of `N=C1C(c2nc3ccccc3[nH]2)=C(O)CN1C1CCCCC1`, the activity change, negative = decreased viability is inactive: 5.93%.
On to `CCC(=O)Nc1cc2nn(-c3ccc(C)cc3)nc2cc1C`, for which the activity change, negative = decreased viability is inactive: 7.67%.
In the case of `O=C(/C=C\c1ccccc1)NCC(=O)N/N=C/c1ccc(O)cc1O`, the activity change, negative = decreased viability was inactive: -16.7%.
Consider `Nc1ccc(-c2ncc(-c3ccccc3)o2)cc1`, for which the activity change, negative = decreased viability was inactive: 5.66%.
On to `Cc1c(C(=O)N(CCO)Cc2ccccc2)oc2c(F)cccc12`, for which the activity change, negative = decreased viability was inactive: 10.3%.
In the case of `CC(C)N1C/C(=C/c2cccnc2)C(=O)/C(=C/c2cccnc2)C1`, the activity change, negative = decreased viability was inactive: 37.1%.
For `CC(=O)COc1ccc2cc(-c3ccccc3)c(=O)oc2c1`, the activity change, negative = decreased viability is inactive: 4.89%.
As for `c1ccc(OCc2nn3c(-c4ccccn4)nnc3s2)cc1`, the activity change, negative = decreased viability is inactive: 4.7%.
For `C=CCOc1ccc(/C=C/C(C)=N\O)cc1` the value was inactive: 6.78%.
For `O=C(Nc1ccc(N2CCN(C(=O)c3ccccc3)CC2)cc1)c1ccc([N+](=O)[O-])o1` the value was inactive: 37.8%.
On to `O=C1c2cc([N+](=O)[O-])cc3cc([N+](=O)[O-])cc(c23)C(=O)N1c1ccccn1`, for which the activity change, negative = decreased viability was inactive: -21.4%.

(Values after PubChem BioAssay AID540335 (Broad Institute, 2011).)
